PubChem BioAssay AID1259254, NCATS | 2017
The whole screen tested about 59,000 reagents; below is a part drawn at random. About 1,550 of all reagents (2.6%) count as active. 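G2 share is only a proxy for re-replication; each gene was hit by three separate siRNAs, and active genes were retested.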 Further read-outs or replicates are left out here. No sequences are given here. Not given: the amount of reagent.

- Aim: 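Gene knock-downs that lead to re-replication, shown by excess G2 DNA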 (primary screen)
- Cells: human HCT116 colorectal cancer cells
- Reagents: single siRNA against human genes
- Timing: 3 days
- Measurement: 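Nuclei stained with Hoechst and imaged; cell-cycle phase assigned by DNA content; G2 share scaled per plate, non-targeting siRNA 0%, GMNN siRNA 100%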
- Reading the numbers: G2 robust z-score and G2 cells, % of GMNN control: higher = more G2 cells, more excess DNA replication
- Call rule: 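An siRNA counts as active if its G2 robust z-score lies at least 5 MADs above the screen median; here such calls match roughly 38% of GMNN control or more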

no.	Target gene	PubChem SID	G2 robust z-score	G2 cells, % of GMNN control	Call
1	TBX5-AS1	SID160732820	0.189	4.3	inactive
2	TBX5-AS1	SID160732821	-0.537	-0.811	inactive
3	TBX5-AS1	SID160762333	0.987	9.91	inactive
4	ZSCAN9	SID160719255	0.492	6.43	inactive
5	ZSCAN9	SID160719256	0.325	5.25	inactive
6	ZSCAN9	SID160719257	-0.122	2.11	inactive
7	MALL	SID160719411	-0.684	-1.85	inactive
8	MALL	SID160719413	0.374	5.6	inactive
9	MALL	SID160719414	3.69	28.9	inactive
10	RNF224	SID160733824	3.43	27.1	inactive
11	RNF224	SID160768924	0.0757	3.5	inactive
12	RNF224	SID160768926	-0.659	-1.67	inactive
13	CSNK1G1	SID160741522	1.9	16.4	inactive
14	CSNK1G1	SID160741523	-1.27	-5.95	inactive
15	CSNK1G1	SID160741524	2.12	17.9	inactive
16	ITM2A	SID160722245	4.65	35.7	inactive
17	ITM2A	SID160722246	0.545	6.8	inactive
18	ITM2A	SID160735226	1.11	10.8	inactive
19	OR10J3	SID160768097	1.38	12.6	inactive
20	OR10J3	SID160768098	-1.07	-4.58	inactive
21	OR10J3	SID160768099	1.83	15.9	inactive
22	CCDC70	SID160735030	0.0736	3.49	inactive
23	CCDC70	SID160751118	-0.0764	2.43	inactive
24	CCDC70	SID160751119	-0.602	-1.27	inactive
25	BRICD5	SID160732943	5.43	41.1	active
26	BRICD5	SID160732944	0.325	5.25	inactive
27	BRICD5	SID160763068	-0.506	-0.591	inactive
28	RPL18	SID160724028	1.75	15.3	inactive
29	RPL18	SID160724029	1.26	11.8	inactive
30	RPL18	SID160724030	0.956	9.69	inactive

The list goes on (6 carried over from the part before).
no.	Target gene	PubChem SID	G2 robust z-score	G2 cells, % of GMNN control	Call
25	BRICD5	SID160732943	5.43	41.1	active
26	BRICD5	SID160732944	0.325	5.25	inactive
27	BRICD5	SID160763068	-0.506	-0.591	inactive
28	RPL18	SID160724028	1.75	15.3	inactive
29	RPL18	SID160724029	1.26	11.8	inactive
30	RPL18	SID160724030	0.956	9.69	inactive
31	FAT3	SID160755782	-0.485	-0.442	inactive
32	FAT3	SID160755783	-0.194	1.6	inactive
33	FAT3	SID160755784	-0.829	-2.86	inactive
34	BST2	SID160729063	2.71	22	inactive
35	BST2	SID160729073	-1.32	-6.32	inactive
36	BST2	SID160729083	2.22	18.6	inactive
37	HSH2D	SID160752999	2.3	19.2	inactive
38	HSH2D	SID160753000	-0.000646	2.96	inactive
39	HSH2D	SID160753001	-0.195	1.6	inactive
40	NUAK2	SID160750966	0.561	6.92	inactive
41	NUAK2	SID160750968	3.01	24.1	inactive
42	NUAK2	SID160750969	2.18	18.3	inactive
43	KDM5D	SID160719792	-0.555	-0.935	inactive
44	KDM5D	SID160719793	-0.18	1.7	inactive
45	KDM5D	SID160731981	0.939	9.57	inactive
46	RPL18P4	SID160724815	2.67	21.8	inactive
47	RPL18P4	SID160733291	-0.389	0.234	inactive
48	RPL18P4	SID160757453	4.21	32.6	inactive
49	RPL18P4	SID160757454	0.354	5.46	inactive
50	RPL18P4	SID160766803	-0.613	-1.35	inactive
51	RPL18P4	SID160766804	-1.02	-4.18	inactive
52	TMEM267	SID160747749	0.347	5.41	inactive
53	TMEM267	SID160747750	-0.58	-1.11	inactive
54	TMEM267	SID160747751	-0.779	-2.52	inactive
55	BTN3A1	SID160729981	-0.0877	2.35	inactive
56	BTN3A1	SID160729982	-1.2	-5.45	inactive
57	BTN3A1	SID160729983	1.69	14.8	inactive
58	DDB1	SID160753075	5.19	39.5	active
59	DDB1	SID160753085	5.29	40.2	active
60	DDB1	SID160753095	4.02	31.2	inactive
61	RBM20	SID160762753	-0.0507	2.61	inactive
62	RBM20	SID160762754	0.382	5.65	inactive
63	RBM20	SID160762755	-0.667	-1.73	inactive
64	THEM4	SID160732362	-0.233	1.33	inactive
65	THEM4	SID160755521	4.04	31.4	inactive
66	THEM4	SID160755522	0.0311	3.19	inactive
67	SNX27	SID160750878	2.9	23.4	inactive
68	SNX27	SID160750879	-1.17	-5.24	inactive
69	SNX27	SID160750880	-0.372	0.353	inactive
